Measurements from “University of Dundee, Small-Polar-MMV Screening Library” (2021), ChEMBL document CHEMBL3988442.

Mtb heat-shock: 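Assay on Mycobacterium tuberculosis, filed only as a heat shock assay from Cornell; the read-out is not stated. The concentration is filed as 10 mM, unlikely as a test dose, so the dose is not known. Direction is inferred from retests: higher values go with stronger inhibition. Of about 69,000 compounds tested this way, about 930 (1.4%) reached 50% or more in at least one test.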
Mtb growth Cornell: 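Whole-cell assay for inhibitors of Mycobacterium tuberculosis growth, labelled Cornell in the record; the read-out is not stated. The concentration is filed as 10 mM, unlikely as a test dose, so the dose is not known. Higher means stronger inhibition (inferred from two other growth screens of the library). Size under these conditions: about 53,000 compounds, about 900 of them at 50% or above in at least one test.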

Values are the deposited “Percent Effect”, in %. The controls that fix the scale are not given in the record; negative values are as filed. The compounds are a random part of those screened. A dash means the value is not listed here; it may have been measured.

SMILES	Mtb heat-shock	Mtb growth Cornell
CN1CC(=O)N(c2cnn(C)c2)CC12CCN(Cc1cccnc1)C2.O=C(O)C(F)(F)F.O=C(O)C(F)(F)F.O=C(O)C(F)(F)F (configuration not stated)	-54.01%	-1.368%
Cc1cnn(C2CCCN(C(=O)c3ccc(C(N)=O)cn3)C2)c1 (configuration not stated)	-17.49%	-14.9%
Cc1nc2c(c(=O)[nH]1)CCN(C(=O)c1cccc3nccnc13)C2	6.512%	0.8843%
CCc1cnc(NCC(c2ccncc2)N2CCOCC2)nc1 (configuration not stated)	9.925%	17.95%
Cc1noc(C)c1C(=O)NCc1ccc(N2CCOCC2)nc1	-11.55%	-22.9%
CCCn1[nH]cc/c1=N\C(=O)CN1CCCC1c1c(C)nn(C)c1C (configuration not stated)	-13.15%	-14.56%
CC(=O)N1CCN(c2ccccc2CNc2ccc(C)cn2)CC1	-1.866%	-
CN(CC(N)=O)C(=O)c1cnc(-c2ccc(Cl)s2)s1	1.308%	1.116%
Cc1cc(C)n(CC(C)NC(=O)C2(c3ccc(F)cc3)CC2)n1 (configuration not stated)	0.3998%	7.93%
[H][C@@]12C[C@H](C)O[C@]1([H])CCN(C(=O)CCc1ccccc1)C2	21.07%	30.7%
CCCc1ccc(S(=O)(=O)NCCNC(=O)c2ccoc2)cc1	-12.85%	10.82%
O=C(NCCCn1ccnc1)N1CCN(c2cccs2)CC1	12.31%	78.28%
[H][C@]12CC[C@]([H])(CN(S(=O)(=O)N(C)C)C1)N(Cc1ccc3nsnc3c1)C2	-17.17%	-7.068%
Cn1cc(CN2CCOCC3(C2)CN(c2ccccc2)C(=O)CO3)cn1.O=C(O)C(F)(F)F (configuration not stated)	4.664%	6.328%
CC(C)Cn1ccnc1CNC(=O)NC(C)(C)c1nccs1	-19.09%	-30.26%
Cc1nn(C)cc1-c1cc(-c2cn(C)nc2C)n(CC(=O)NC2CC2)n1	8.228%	-38.84%
COc1cnc(CSc2nnc(C)s2)cc1OCC(=O)NC(C)(C)C	-19.02%	24.51%
CC(C)Oc1ccc2c(NC(=O)CNC(N)=O)nn(CC(F)(F)F)c2c1	-17.36%	10.45%
CC(C#N)CSc1ccccc1NCC(=O)NC1CCCCC1 (configuration not stated)	-9.473%	45.35%
O=C(c1ccc(F)c(F)c1)N1CCC(Cn2cc(CO)nn2)CC1	6.411%	-1.155%
C[C@@H]1CN(c2cc(N3CCC(O)CC3)ncn2)C[C@@]1(O)C1CCC1	-15.06%	-11.39%
Cc1cc(C)c(CNC(=O)NC2COc3ccccc3C2)c(=O)[nH]1 (configuration not stated)	-16.1%	-
COc1ccc(CCC(=O)NCCC2CCCO2)cc1Br (configuration not stated)	-12.02%	12.87%
CN(C)[C@@H]1CO[C@H](CNC(=O)CC(C)(C)C)[C@H]1O	-29.35%	-29.71%
Cc1ccc(NC(=O)N2CCN(Cc3noc(C4CC4)n3)CC2)cc1	-13.43%	-
COc1ccc(CC(=O)N2CCCC2Cn2cccn2)cc1F (configuration not stated)	-20.5%	27.9%
CN(C)c1ccc(C(CNS(=O)(=O)c2cccs2)N2CCCC2)cc1 (configuration not stated)	27.07%	12.63%
CC1(C)CN(S(=O)(=O)N2CCOCC2)CC1c1ccccc1 (configuration not stated)	13.34%	1.252%
CCN(C1CCS(=O)(=O)C1)S(=O)(=O)c1cccc2cc(C)cnc12 (configuration not stated)	15.12%	-34.5%
CSCc1noc(CNC2CCCC(C)(C)C2)n1 (configuration not stated)	11.32%	0.9242%
Cn1nccc1CNS(=O)(=O)c1cc(F)ccc1Br	5.606%	9.566%
CNC(=O)N1CCC2(CC1)CNc1ccc(F)cc12.Cl	3.449%	-1.476%
O=C(c1cscn1)N1CCc2ncc(CN3CCOCC3)n2CC1	-1.543%	-49.06%
COc1c(C)cnc(CN(C)C(=O)c2ccccc2O)c1C	15.62%	-10.72%
CC(=O)NCc1ccc(C(=O)Nc2ccc3c(c2)C(=O)NC3)cc1	5.152%	14.42%
O=C(NCCC(O)c1ccco1)c1ccco1 (configuration not stated)	23.14%	-6.108%
CC(NC(=O)NCc1cscn1)c1ccc(N2CCOCC2)cc1 (configuration not stated)	-1.252%	-
Cc1nsc(N2CCN(Cc3cccc(F)c3)CC2)n1	-7.06%	7.029%
COCCCNC(=O)Cc1cc(-c2ccccc2)on1	19.17%	-1.255%
Cc1cnn(CC2CN(c3ncnc4c3CCC4)CCO2)c1 (configuration not stated)	-25.59%	15.01%
O=C(O)C(F)(F)F.O=C(O)C(F)(F)F.c1ccc(CN2CCc3ncnc(-c4ccncc4)c3CC2)nc1	-12.52%	-50.62%
Cc1ccc2[nH]c(=O)c(CN(C)Cc3cc(C4CC4)[nH]n3)cc2c1	-1.883%	14.46%
O=C(O)C(F)(F)F.O=C(O)C(F)(F)F.[H][C@@]12CCN(Cc3ccncc3)C(=O)[C@@]1([H])CN(Cc1ccc(C)s1)C2	-14.03%	17.54%
Cc1ccc(CN2CC3(CCN(S(=O)(=O)c4ccccc4)C3)C2)o1	-7.035%	-
Cc1nc(COC(=O)c2cccc3c2OCCO3)cs1	8.06%	8.881%
CCOc1ncccc1NC(=O)NC1CCCN(S(C)(=O)=O)C1 (configuration not stated)	-20.91%	-
[H][C@]12C[C@H](NC(=O)c3cscn3)[C@@]1([H])CN(S(=O)(=O)c1ccc(C)cc1)C2	-9.124%	-0.1618%
O=C(CCc1nc2ccccc2[nH]1)Nc1ccc2c(c1)OCC(=O)N2	18.68%	18.85%
CC1CCN(CC(=O)NC2CCN(C(C)c3ccccc3)CC2)CC1.Cl (configuration not stated)	-14.6%	-6.279%
OCCn1nccc1C1CCN(CCOc2ccccc2F)CC1	-16.73%	-1.186%
[H][C@]12CC[C@@]([H])(C1)N(Cc1cccc(OC)c1OCCN1CCOCC1)C2	-172.3%	-
Cc1nc(SCC(=O)Nc2ccc(C(N)=O)cc2)c(C#N)c(C)c1C	-13.17%	-
CCC(CO)N(Cc1ccccc1C)Cc1ccccc1C(=O)O (configuration not stated)	9.259%	34.72%
O=C(CCc1ccc(Br)cc1)NCCc1nnc[nH]1	-1.46%	9.652%
CNC(=O)c1cn2cc(-c3ccccc3Cl)n(CC3CC3)c(=O)c2n1	12.71%	16.32%
Cc1csc2c(N3CCC(NCCCc4cnn(C)c4)CC3)ncnc12	-17.53%	10.6%
CC(C)NC(=O)c1nc2c(s1)CCCN2c1ccccc1	37.13%	-53%
[H][C@@]12CCN(C(=O)CN(C)C)C[C@]1(COCC1CC1)CCO2	-10.71%	6.81%
Cc1cccc(C)c1CCNC(=O)N1CCCC2(C1)OCCO2	5.49%	-
COCCc1ncc(CNC2(c3ccc(Cl)cc3)CC2)cn1	-1.087%	-25.97%
N#Cc1cc(S(N)(=O)=O)ccc1N1CCc2c(Cl)cccc2C1	12.71%	-
CC(C)c1ccc(C(C)NC(=O)N2CCC(n3cncn3)CC2)cc1 (configuration not stated)	-3.028%	10.25%
COCCc1noc(-c2cc(Cl)c3c(c2)OCCCO3)n1	-8.172%	5.478%
O=C(Nc1ccc2c(ccn2CCN2CCOCC2)c1)c1ccncc1	-19.87%	-6.178%
CCOC(C)c1nc(Cn2cc(C(=O)NC)ccc2=O)cs1 (configuration not stated)	39.95%	8.15%
[H][C@@]12CCN(S(C)(=O)=O)C[C@@]1([H])O[C@@H](c1ccnc(C)n1)C2	11.13%	-
CC(Cn1cccn1)n1cnc2cccc(Cl)c2c1=O (configuration not stated)	6.029%	-72.34%
[H][C@]12CC[C@]([H])(CN(C(=O)C3CCC3)C1)N(C(=O)c1cccc(OCC)c1)C2	-18.89%	-1.349%
Cc1n[nH]c(C)c1CNCC(O)c1cccc(Cl)c1.Cl (configuration not stated)	-4.464%	6.017%
CC(C)N1CC[C@@](C)(O)[C@H](n2ccc(=O)[nH]c2=O)C1	11.85%	-3.084%
CCOC(=O)N1CCN(C(=O)c2sc(-c3ccccc3F)nc2C)CC1	2.418%	36.54%
CNC(=O)N1CCc2nc(C(=O)Nc3cccnc3)sc2CC1	3.644%	6.229%
CCc1nc(-c2noc3ccc(C(=O)NCCN(C)C)cc23)co1	-24.96%	3.653%
COCCCN1CCCC2(CCN(S(=O)(=O)c3cccnc3)C2)C1=O (configuration not stated)	-39.21%	-46.12%
CCOc1ncnc2c1CCN(Cc1cccs1)CC2.O=C(O)C(F)(F)F	-26.39%	23.04%
CC(=O)N1CCCCC1c1nc2c(c(NC3CCCC3)n1)CN(C)CC2 (configuration not stated)	-32.85%	-
CSCC(=O)Nc1cccc(Oc2ccccn2)c1	3.619%	12.19%
COc1c(C(=O)N2CCC(CSc3ccccc3)C2)c(C)nn1C (configuration not stated)	4.351%	-
COCCN1CCC2(CC1)CC(NC(=O)CN(C)C)c1ccccc1O2.O=C(O)C(F)(F)F.O=C(O)C(F)(F)F (configuration not stated)	-9.867%	4.134%
O=C(NCc1cc(Cl)ccn1)NCc1ccco1	49.27%	8.985%
CCn1ncc2c1CN(C(=O)Cc1ccccn1)CC2COC.O=C(O)C(F)(F)F.O=C(O)C(F)(F)F (configuration not stated)	-1.581%	-4.411%

Repeated from the top, 8 entries:

| SMILES | Mtb heat-shock | Mtb growth Cornell |
|---|---|---|
| `CN1CC(=O)N(c2cnn(C)c2)CC12CCN(Cc1cccnc1)C2.O=C(O)C(F)(F)F.O=C(O)C(F)(F)F.O=C(O)C(F)(F)F` (configuration not stated) | -54.01% | -1.368% |
| `Cc1cnn(C2CCCN(C(=O)c3ccc(C(N)=O)cn3)C2)c1` (configuration not stated) | -17.49% | -14.9% |
| `Cc1nc2c(c(=O)[nH]1)CCN(C(=O)c1cccc3nccnc13)C2` | 6.512% | 0.8843% |
| `CCc1cnc(NCC(c2ccncc2)N2CCOCC2)nc1` (configuration not stated) | 9.925% | 17.95% |
| `Cc1noc(C)c1C(=O)NCc1ccc(N2CCOCC2)nc1` | -11.55% | -22.9% |
| `CCCn1[nH]cc/c1=N\C(=O)CN1CCCC1c1c(C)nn(C)c1C` (configuration not stated) | -13.15% | -14.56% |
| `CC(=O)N1CCN(c2ccccc2CNc2ccc(C)cn2)CC1` | -1.866% | - |
| `CN(CC(N)=O)C(=O)c1cnc(-c2ccc(Cl)s2)s1` | 1.308% | 1.116% |